Some of these results come from one statement about several compounds together.
What was measured:
[1] = system: HCV polymerase; test: Measurement of the HCV polymerase activity (3H-UTP incorporation into template RNA); type: biochemical, HCV-BK strain; details: compared with wild-type HCV polymerase NS5B591
Excerpt: The DNA fragment (148 bp) containing polyU and 3′ X sequence was completely synthesized using synthetic primers designed based on the sequence of the 3′ untranslational region of the HCV genome, and cloned into plasmid pBluescript SK II (+) (Stratagene). The cDNA encoding the full length NS5B prepared in the same manner as in Example 1 was digested with restriction enzyme KpnI to obtain the cDNA fragment covers the region from the restriction enzyme cleavage site to the stop codon. This cDNA fragment was ligated to the upstream of 3′ untranslational region DNA of pBluescript SK II (+). The DNA insert of about 450 bp in total was used as a template for preparing the template RNA. The plasmid was cleaved just after 3′ X sequence, circulated, treated with phenol/chloroform, and purified by ethanol precipitation to recover the DNA.
Using the purified DNA as a template, utilizing the promoter in pBluescript SK II (+), RNA was synthesized by the run-off method using MEGAscript RNA synthesis kit (Ambion), and T7 RNA polymerase (at 37° C. for 3 hours). DNaseI was added thereto and further incubated for 1 hour, and the template DNA was decomposed and removed to obtain the crude RNA product. The crude product was treated with phenol/chloroform, and purified by ethanol precipitation to obtain the desired template RNA. After confirming the quality of the RNA by agarose gel electrophoresis, the RNA was stored at −80° C. The RNA is a template suitable for the highly sensitive measurement of the polymerase activity. […]
The reaction was terminated by adding 10% trichloroacetic acid at 4° C. and 1% sodium diphosphate solution (150 μl) to the reaction mixture, and kept in ice for 15 min to precipitate the RNA. […] A liquid scintillation cocktail (Packard) was added to the RNA synthesized by the enzyme reaction, and the radioactivity of the RNA was measured by a liquid scintillation counter.
The activity of the HCV polymerase was calculated from the value of radioactivity in the enzyme reaction of each NS5B using the radioactivity in the enzyme reaction of NS5B591 as a standard.

[2] = system: HCV polymerase; details: literature comparison with NS5B570; cited from earlier work

Substance | HCV polymerase activity, fold higher than NS5B591 [1] [fold] | activity compared with NS5B570 [2] [times]
NS5B531: consecutive amino acid sequence 1-531 of NS5B with histidine tag | ≥ 20 | –
NS5B536: consecutive amino acid sequence 1-536 of NS5B with histidine tag | ≥ 20 | 1.3 to 1.4
NS5B544: consecutive amino acid sequence 1-544 of NS5B with histidine tag GSHHDHHH | ≥ 20 | –
